Source: PubChem BioAssay AID504847 (National Center for Advancing Translational Sciences (NCATS), 2011)
“And” between values parts separate entries of the source, which are not always exact repeats. Identical values can stand only once. The whole screen tested about 400,000 compounds, of which about 3,700 (0.93%) were called active. Inconclusive means that the source gave no clear call. Such entries were picked first, then a sample of the others. Calls follow the shape of the dose curve; as a rule, active = well fitted inhibition curve with a large enough effect; inconclusive = small, poorly fitted or top-dose-only effect, or another doubt; inactive = no such curve, though single readings can be large or run the other way. A potency beside an inconclusive call is a rough fit, not a confirmed value.

By UniProt entry, the sequences of proteins in these tests, tags left out.
UniProt P11473, whole entry, looked up: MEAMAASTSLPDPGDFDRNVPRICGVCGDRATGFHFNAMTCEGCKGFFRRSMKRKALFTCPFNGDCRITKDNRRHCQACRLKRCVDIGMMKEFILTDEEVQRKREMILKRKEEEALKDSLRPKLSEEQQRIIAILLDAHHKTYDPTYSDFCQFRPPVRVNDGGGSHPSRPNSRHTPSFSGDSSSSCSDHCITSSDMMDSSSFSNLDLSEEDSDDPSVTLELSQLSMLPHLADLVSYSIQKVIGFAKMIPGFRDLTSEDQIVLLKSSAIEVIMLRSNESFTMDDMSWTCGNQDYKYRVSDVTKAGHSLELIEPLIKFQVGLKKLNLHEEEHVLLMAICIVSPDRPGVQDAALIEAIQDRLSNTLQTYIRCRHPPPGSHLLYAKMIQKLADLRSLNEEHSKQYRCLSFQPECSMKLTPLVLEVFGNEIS

Each compound was assayed against Vitamin D3 receptor (Homo sapiens) (UniProt P11473) (assay: Inhibitors of the vitamin D receptor (VDR): qHTS). Settings: VDR-SRC2-3 peptide fluorescence polarization, 2 h; max response, negative = inhibition: stronger effect = lower value.
How it was run: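 Signal is fluorescence polarization, reporting how far test compounds block the interaction of VDR with the SRC2-3 coregulator peptide after a 2 h room-temperature incubation.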
% is scaled to controls: 0 for no effect and ±100 for the full control effect; potency is read from the fitted curve at half-maximal effect.

| SMILES | max response, negative = inhibition | Potency |
| --- | --- | --- |
| CCOc1ccccc1NC1=C(Cl)C(=O)N(Cc2ccccc2)C1=O | inactive: 2.63% | – |
| CSc1ncc(Cl)c(C(=O)C(C#N)c2nc3c(C)cc(C)cc3c(=O)[nH]2)n1 (stereo unspecified) | – | inconclusive: 100 µM [inhibitor, partial curve, poor fit] |
| C/C=C(\C)C(=O)OC1[C@H](OC(C)=O)C2(CO)C(CC1(C)C)C1=CCC3C4(C)CCC(O[C@@H]5O[C@H](C(=O)O)[C@@H](O[C@@H]6O[C@H](CO)[C@@H](O)[C@H](O)[C@H]6O)[C@H](O)[C@H]5O[C@H]5O[C@H](CO)[C@@H](O)[C@H](O)[C@H]5O)[C@](C)(CO)C4CCC3(C)[C@]1(C)C[C@H]2O (stereo partly specified) | – | inconclusive: 100 µM [inhibitor, single point] |
| COCCNS(=O)(=O)c1ccc2c(c1)Cc1cc(S(=O)(=O)NCCOC)ccc1-2 | – | inconclusive: 56.2 µM [inhibitor, partial curve, poor fit] |
| COc1ccc(NS(=O)(=O)c2cc(NC(=O)c3ccncc3)ccc2N2CCOCC2)cc1 | inactive: -13.5% | – |
| COc1cccc(C2CC(=O)N3CN(c4ccccc4F)CSC3=C2C#N)c1 (stereo unspecified) | – | active: 44.7 µM |
| COc1ccccc1/C=C/C=N/NC(=O)c1ccccn1 | inactive: 19.6% | – |
| CC(Sc1nnc2ccccn12)C(=O)Nc1ccc(N2CCOCC2)cc1 (stereo unspecified) | – | inconclusive: 50.1 µM [inhibitor, partial curve, poor fit] |
| O=c1c(CCc2ccccc2)nc2cncnc2n1Cc1ccccc1Cl | – | inconclusive: 44.7 µM [inhibitor, partial curve] |
| CCc1cc2cc(OC)ccc2nc1SCC(=O)Nc1cc(OC)c(OC)cc1C(=O)O | – | inconclusive: 89.1 µM [inhibitor, single point] |
| CC(C)c1ccc(NC(=O)Cc2ccc(NC(=O)N3CCCCc4ccccc43)cc2)cc1 | inactive: 0.156% | – |
| O=C1CC[C@H](O)CCN1[C@H](CSc1ccc(Br)cc1)Cc1ccccc1 | – | inconclusive: 79.4 µM [inhibitor, single point] |
| CCOC(=O)c1ccc(NC(=S)NNC(=O)c2cc(-c3cccnc3)nc3ccccc23)cc1 | – | inconclusive: 4.47 µM [inhibitor, partial curve, poor fit] |
| COc1ccc2[nH]c3c4c(ccc3c2c1)C(=O)C=CC4=O | – | inconclusive: 100 µM [inhibitor, partial curve, poor fit] |
| CN(CCCN1c2ccccc2CCc2ccccc21)CC(=O)c1ccc(Cl)cc1 | – | active: 35.5 µM and active: 39.8 µM |
| Cc1cc2nnc(SC3CCCCN(C(=O)c4ccc(F)cc4)C3=O)n2c2ccccc12 (stereo unspecified) | inactive: 10.1% | – |
| Cc1ccccc1N1C(S)=C(C#N)C(=O)NC1c1ccco1 (stereo unspecified) | – | active: 79.4 µM |
| CN(C)Cc1ccccc1-c1nc(N(C)Cc2ccco2)c2ccccc2n1 | – | inconclusive: 56.2 µM [inhibitor, partial curve] |
| CC(=O)N(C(C)=O)n1c(C)nc2sc3c(c2c1=O)CCCC3 | – | inconclusive: 56.2 µM [inhibitor, partial curve, poor fit] |
| CCOC(=O)c1cc2cc(OCc3ccccc3)ccc2nc1C | – | inconclusive: 89.1 µM [inhibitor, single point] |
| Oc1cc2c(cc1C(c1ccc(Cl)c(Cl)c1)N1CCCC1)OCO2 (stereo unspecified) | – | inconclusive: 20 µM [inhibitor, full curve, poor fit] |
| CCC(C)Nc1ccc(NC(C)CC)cc1 (stereo unspecified) | – | inconclusive: 2.24 µM [inhibitor, full curve, poor fit] |

| SMILES | max response, negative = inhibition | Potency |
| --- | --- | --- |
| O=C(C1CC(=O)N(c2ccc(F)cc2)C1)N1CCN(c2ccccc2)CC1 (stereo unspecified) | – | inconclusive: 25.1 µM [inhibitor, partial curve, poor fit] |
| O=C(Cn1c(/C=C/c2ccccc2)nc2ccccc21)Nc1ccc(F)cc1 | – | inconclusive: 79.4 µM [inhibitor, partial curve, poor fit] |
| CN(C)Cc1nc(-c2cn(C)c3ccccc23)no1 | inactive: 12.9% | – |
| CCCNC(=O)CSc1c2c(nc3ccc(Cl)cc13)CCCC2 | – | inconclusive: 63.1 µM [inhibitor, partial curve, poor fit] |
| O=C(Nc1ncccn1)c1ccc(C(F)(F)F)cc1 | – | inconclusive: 89.1 µM [inhibitor, single point] |
| CCOC(=O)c1c(NC(=O)CSc2nc(-c3ccc(OC)cc3)cc(C(F)(F)F)n2)sc(C)c1C | – | active: 79.4 µM |
| CCOC(=O)C1=CN(Cc2ccco2)S(=O)(=O)N(CC)C1c1ccc(C(F)(F)F)cc1 (stereo unspecified) | – | inconclusive: 56.2 µM [inhibitor, single point] |
| CC(C)CNC(=O)C1Nc2ccccc2C2C=CCC12 (stereo unspecified) | – | inconclusive: 89.1 µM [inhibitor, partial curve, poor fit] |
| COC(=O)c1c(C)oc2c1cc(NS(=O)(=O)c1ccc(C(=O)O)cc1)c1ccccc12 | – | inconclusive: 50.1 µM [inhibitor, partial curve] |
| N#CN=c1snc(-c2ccccc2Cl)n1-c1ccccc1Cl | inactive: -11.2% | – |
| CN(C)c1ccc(/C=C/C(=O)c2ccccc2)cc1[N+](=O)[O-] | – | inconclusive: 50.1 µM [inhibitor, partial curve, poor fit] |
| CCNc1ncc2nc(CCc3ccccc3)c(=O)n(-c3ccccc3)c2n1 | – | inconclusive: 44.7 µM [inhibitor, partial curve] |
| O=C1CSC(=S)N1/N=C/c1cccnc1 | inactive: -10.8% | – |
| CCOc1cc(/C=C2\C(=N)N3N=C(S(C)(=O)=O)SC3=NC2=O)ccc1OCCOc1cccc(OC)c1 | – | inconclusive: 89.1 µM [inhibitor, partial curve, poor fit] |
| COc1ccc(CCNc2nc(SCc3ccccc3F)nc3ccccc23)cc1OC | inactive: 9.94% | – |
| O=C(O)CCc1ccc(NCc2cccc(Oc3ccccc3)c2)cc1 | – | inconclusive: 44.7 µM [inhibitor, partial curve] |
| O=[N+]([O-])c1ccc2nc(CCCO)[nH]c2c1 | inactive: 3.59% | – |
| CC1CCN(C(=O)c2ccc(S(=O)(=O)Cc3cccc(F)c3)c([N+](=O)[O-])c2)CC1 | – | inconclusive: 70.8 µM [inhibitor, single point] |
| O=C(O)CCc1ccc(-c2ccc(F)cc2)n1CC(=O)O | inactive: -7.58% | – |
| O=C(/C=C/c1cccnc1)c1ccc(F)c(F)c1 | – | active: 44.7 µM |
| NS(=O)(=O)c1ccc(-c2ccc(/C=C3\NC(=S)NC3=O)o2)cc1 | – | active: 79.4 µM |
| CN(O)/C=N/C(=S)Nc1ccc(Cl)cc1Cl | – | inconclusive: 28.2 µM [inhibitor, partial curve, poor fit] |

| SMILES | max response, negative = inhibition | Potency |
| --- | --- | --- |
| CCCCCOc1ccccc1CN1C(=O)C(=O)c2cc(C)ccc21 | – | inconclusive: 28.2 µM [inhibitor, single point] |
| O=C(CSCc1ccccc1)Nc1cc([N+](=O)[O-])ccc1F | inactive: -18.1% | – |
| Cc1ccc(/C=C/C(=O)N2CCC(c3nc4ccccc4o3)CC2)cc1 | inactive: 2.25% | – |
| O=[N+]([O-])c1cc([N+](=O)[O-])c2c(=Nc3ccccc3)n(-c3ccccc3)n(O)c2c1 | – | inconclusive: 89.1 µM [inhibitor, single point] |
| Cc1ccc(-c2nc3ccccc3c(C(=O)NCc3cccs3)c2C)cc1 | – | inconclusive: 89.1 µM [inhibitor, partial curve, poor fit] |
| CN1CCN(c2cc(=O)n(C3CCCCC3)c(=O)[nH]2)CC1 | inactive: -2.6% | – |
| CCN(CC)C(=O)[C@H]1C[C@H](CC(=O)NCc2ccco2)C(=O)N2CCc3c([nH]c4cc(-c5ccco5)ccc34)[C@]12C | – | inconclusive: 50.1 µM [inhibitor, partial curve, poor fit] |
| Cc1ccc(SC2=NS(=O)(=O)c3ccccc32)c(C)c1 | – | active: 35.5 µM |
| c1ccc2c(SCc3cn4ccccc4n3)nncc2c1 | inactive: 1.49% | – |
| CCN(CC)c1ccc(C=C2C(=O)OC(C)(C(C)(C)C)OC2=O)cc1 (stereo unspecified) | – | inconclusive: 79.4 µM [inhibitor, partial curve] |
| CCC(c1nnnn1Cc1ccc(OC)cc1)N1CCN(c2ccc(OC)cc2)CC1 (stereo unspecified) | inactive: 0.0899% | – |
| CN(Cc1ccccc1)C(=O)c1ccc([N+](=O)[O-])o1 | inactive: -8.33% | – |
| O=C(Nc1ccccc1Oc1cccnc1)C1CCCN(Cc2ccccc2O)C1 (stereo unspecified) | inactive: -3.38% | – |
| CCCCc1cc(=O)oc2c(CN3CCCC3)c(O)c(Cl)cc12 | – | inconclusive: 39.8 µM [inhibitor, partial curve, poor fit] |
| CC1(C)CC(=O)C=C(NCC(O)c2ccccc2)C1 (stereo unspecified) | inactive: -17.7% | – |
| O=C(CCCSc1ccc(Cl)cc1)Nc1cc(S(=O)(=O)N2CCOCC2)ccc1O | – | inconclusive: 56.2 µM [inhibitor, partial curve, poor fit] |
| COc1ccc(Nc2nc(C)cc(C)c2C(N)=O)c(OC)c1 | inactive: -13.4% | – |
| Cn1nc(-c2ccccc2)c(CO)c1Oc1ccc(F)cc1 | – | inconclusive: 25.1 µM [inhibitor, single point] |
| Cc1ccc(N(CCC#N)C(=O)COC(=O)c2cc(C)oc2C)cc1 | – | inconclusive: 70.8 µM [inhibitor, partial curve] |
| CC(c1ccco1)N(C(=O)CSc1ccc(Br)cc1)c1ccccn1 (stereo unspecified) | – | inconclusive: 28.2 µM [inhibitor, full curve, poor fit] |
| C/C(=N\NC(=O)c1ccc(F)cc1)c1cccc(NC(=O)c2cccc(F)c2)c1 | inactive: 6.23% | – |
| CCOC(=O)C1=C(CS(=O)(=O)c2ccc(OC)c(Cl)c2)NC(=O)NC1c1cccc(OC)c1 (stereo unspecified) | – | inconclusive: 89.1 µM [inhibitor, single point] |
